Experimental data from the supplement of paper PMC8728848.
Some of the results follow.

What was measured:
Test in all cases: glycan array binding signal (z-score within array); higher = stronger binding
Conditions in all cases: glycan notation: IUPAC condensed, linker removed
[1] = target: Gal(b1-3)GalNAc(b1-3)Gal(a1-4)Gal(b1-4)Glc
Outline: (§1)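 Columns mapping to the same glycan were averaged after glycan names were converted to IUPAC-condensed notation. The data come from 3228 arrays in the Consortium for Functional Glycomics database, limited to those with an available protein sequence. Binding is reported as a within-array Z-score averaged across arrays of one protein sequence and across linkers.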

[2] = target: Gal(b1-3)GalNAc(b1-4)Gal(b1-4)Glc
Outline: as §1

[3] = target: Gal(b1-3)GalNAc(b1-4)[Neu5Ac(a2-3)]Gal(b1-4)Glc
Outline: as §1

[4] = target: Gal(b1-3)GlcNAc
Outline: as §1

[5] = target: Gal(b1-3)GlcNAc(a1-3)Gal(b1-4)GlcNAc
Outline: as §1

[6] = target: Gal(b1-3)GlcNAc(a1-6)Gal(b1-4)GlcNAc
Outline: as §1

[7] = target: Gal(b1-3)GlcNAc(b1-2)Man
Outline: as §1

[8] = target: Gal(b1-3)GlcNAc(b1-2)Man(a1-3)[Gal(b1-3)GlcNAc(b1-2)Man(a1-6)]Man(b1-4)GlcNAc(b1-4)GlcNAc
Outline: as §1

[9] = target: Gal(b1-3)GlcNAc(b1-2)Man(a1-3)[Gal(b1-3)GlcNAc(b1-2)Man(a1-6)]Man(b1-4)GlcNAc(b1-4)[Fuc(a1-6)]GlcNAc
Outline: as §1

[10] = target: Gal(b1-3)GlcNAc(b1-2)Man(a1-3)[GlcNAc(b1-4)][Gal(b1-3)GlcNAc(b1-2)Man(a1-6)]Man(b1-4)GlcNAc(b1-4)GlcNAc
Outline: as §1

[11] = target: Gal(b1-3)GlcNAc(b1-2)[Gal(b1-3)GlcNAc(b1-6)]Man(a1-6)[Gal(b1-3)GlcNAc(b1-2)Man(a1-3)]Man(b1-4)GlcNAc(b1-4)GlcNAc
Outline: as §1

[12] = target: Gal(b1-3)GlcNAc(b1-3)Gal(b1-3)GlcNAc
Outline: as §1

[13] = target: Gal(b1-3)GlcNAc(b1-3)Gal(b1-4)Glc
Outline: as §1

[14] = target: Gal(b1-3)GlcNAc(b1-3)Gal(b1-4)GlcNAc
Outline: as §1

[15] = target: Gal(b1-3)GlcNAc(b1-3)Gal(b1-4)GlcNAc(b1-2)Man(a1-3)[Gal(b1-3)GlcNAc(b1-3)Gal(b1-4)GlcNAc(b1-2)Man(a1-6)]Man(b1-4)GlcNAc(b1-4)GlcNAc
Outline: as §1

[16] = target: Gal(b1-3)GlcNAc(b1-3)Gal(b1-4)GlcNAc(b1-2)[Gal(b1-3)GlcNAc(b1-3)Gal(b1-4)GlcNAc(b1-6)]Man(a1-6)[Gal(b1-3)GlcNAc(b1-3)Gal(b1-4)GlcNAc(b1-2)Man(a1-3)]Man(b1-4)GlcNAc(b1-4)[Fuc(a1-6)]GlcNAc
Outline: as §1

[17] = target: Gal(b1-3)GlcNAc(b1-3)Gal(b1-4)GlcNAc(b1-3)Gal(b1-4)GlcNAc(b1-2)[Gal(b1-3)GlcNAc(b1-3)Gal(b1-4)GlcNAc(b1-3)Gal(b1-4)GlcNAc(b1-6)]Man(a1-6)[Gal(b1-3)GlcNAc(b1-3)Gal(b1-4)GlcNAc(b1-3)Gal(b1-4)GlcNAc(b1-2)Man(a1-3)]Man(b1-4)GlcNAc(b1-4)[Fuc(a1-6)]GlcNAc
Outline: as §1

[18] = target: Gal(b1-3)GlcNAc(b1-3)Gal(b1-4)GlcNAc(b1-6)[Gal(b1-3)GlcNAc(b1-3)]Gal(b1-4)Glc
Outline: as §1

[19] = target: Gal(b1-3)GlcNAc(b1-3)Gal(b1-4)[Fuc(a1-3)]GlcNAc
Outline: as §1

[20] = target: Gal(b1-3)GlcNAc(b1-3)Gal(b1-4)[Fuc(a1-3)]GlcNAc(b1-6)[Gal(b1-3)GlcNAc(b1-3)]Gal(b1-4)Glc
Outline: as §1

[21] = target: Gal(b1-3)GlcNAc(b1-3)GalNAc
Outline: as §1

[22] = target: Gal(b1-3)GlcNAc(b1-6)Gal(b1-4)GlcNAc
Outline: as §1

[23] = target: Gal(b1-3)GlcNAc(b1-6)GalNAc
Outline: as §1

[24] = target: Gal(b1-3)GlcNAc(b1-6)[Gal(b1-3)]GalNAc
Outline: as §1

[25] = target: Gal(b1-3)GlcNAc6S
Outline: as §1

[26] = target: Gal(b1-3)[Fuc(a1-4)]GlcNAc
Outline: as §1

[27] = target: Gal(b1-3)[Fuc(a1-4)]GlcNAc(b1-2)Man
Outline: as §1

[28] = target: Gal(b1-3)[Fuc(a1-4)]GlcNAc(b1-2)Man(a1-3)[Gal(b1-3)[Fuc(a1-4)]GlcNAc(b1-2)Man(a1-6)]Man(b1-4)GlcNAc(b1-4)[Fuc(a1-6)]GlcNAc
Outline: as §1

[29] = target: Gal(b1-3)[Fuc(a1-4)]GlcNAc(b1-3)Gal(b1-3)[Fuc(a1-4)]GlcNAc
Outline: as §1

[30] = target: Gal(b1-3)[Fuc(a1-4)]GlcNAc(b1-3)Gal(b1-4)[Fuc(a1-3)]GlcNAc
Outline: as §1

[31] = target: Gal(b1-3)[Fuc(a1-4)]GlcNAc(b1-6)GalNAc
Outline: as §1

[32] = target: Gal(b1-3)[GlcNAc(b1-6)]GalNAc
Outline: as §1

[33] = target: Gal(b1-3)[Neu5Ac(a2-6)]GalNAc
Outline: as §1

[34] = target: Gal(b1-3)[Neu5Ac(a2-6)]GlcNAc(b1-4)Gal(b1-4)Glc
Outline: as §1

[35] = target: Gal(b1-3)[Neu5Ac(b2-6)]GalNAc
Outline: as §1

[36] = target: Gal(b1-4)Gal
Outline: as §1

[37] = target: Gal(b1-4)GalNAc(a1-3)[Fuc(a1-2)]Gal(b1-4)GlcNAc
Outline: as §1

[38] = target: Gal(b1-4)GalNAc(b1-3)[Fuc(a1-2)]Gal(b1-4)GlcNAc
Outline: as §1

B1: GS7807F-bth-514-18-514 (Bacteroides thetaiotaomicron) (protein)
chain: AGSCTGNFEEYNTNQFQIHEADPSTLMKSMIETIVNIQQNDSQMMDQMVGQLGGYLTCANVWSGTNFGTFNQSDAWNAGPWNTNFEKIYGNFFQIQEATNESGHYYAFARMIRAITMLRVADCYGPMPYSQVKKGNFYVAYDTEEQVYKNIMEDFASAANVLYNYYKDTNGNAPLASNDPVFSGNYANWARLANSMRLRVAIRISTAYPEMAKENAEAAASHEAGLIEANNDNAMMDCGSQTNPYQLAAVSWGDLRVNANIVDYMNGYGDPRMSKYFNHSTFTGHTQEYVGMRSGEDGFAKSDVAGYSIPAITGTSKLLVFCAAETAFLRAEGKLKNWSVGNKSAKEYYEEGIKLSMEQYGTTMPDNYLTNTEKPTVSHNNDPRGHAYTISNTVAVAWNDNNEEENLQRIITQKWIANYPLGLEAWAEYRRTGYPELYPCIDNLSPSGVDSKRGMRRLRFPYTEVQNNHSNYQQGVSYLKNGGPDNEATDLSWGKTN
- glycan array binding signal (z-score) [1]: 0.006
- glycan array binding signal (z-score) [2]: 0.212
- glycan array binding signal (z-score) [3]: 3.23
- glycan array binding signal (z-score) [4]: 0.308
- glycan array binding signal (z-score) [5]: 0.716
- glycan array binding signal (z-score) [6]: -0.717
- glycan array binding signal (z-score) [7]: 0.647
- glycan array binding signal (z-score) [8]: 2.03
- glycan array binding signal (z-score) [9]: 0.491
- glycan array binding signal (z-score) [10]: 1.19
- glycan array binding signal (z-score) [11]: 1.13
- glycan array binding signal (z-score) [12]: -0.612
- glycan array binding signal (z-score) [13]: -0.157
- glycan array binding signal (z-score) [14]: -0.41
- glycan array binding signal (z-score) [15]: -0.007
- glycan array binding signal (z-score) [16]: 1.69
- glycan array binding signal (z-score) [17]: 1.85
- glycan array binding signal (z-score) [18]: 0.997
- glycan array binding signal (z-score) [19]: -0.065
- glycan array binding signal (z-score) [20]: -0.274
- glycan array binding signal (z-score) [21]: 1.19
- glycan array binding signal (z-score) [22]: 0.12
- glycan array binding signal (z-score) [23]: 1.49
- glycan array binding signal (z-score) [24]: 1.38
- glycan array binding signal (z-score) [25]: 2.12
- glycan array binding signal (z-score) [26]: -0.644
- glycan array binding signal (z-score) [27]: -0.122
- glycan array binding signal (z-score) [28]: 1
- glycan array binding signal (z-score) [29]: -0.44
- glycan array binding signal (z-score) [30]: -0.842
- glycan array binding signal (z-score) [31]: 1.82
- glycan array binding signal (z-score) [32]: -0.455
- glycan array binding signal (z-score) [33]: -0.323
- glycan array binding signal (z-score) [34]: 0.228
- glycan array binding signal (z-score) [35]: -0.871
- glycan array binding signal (z-score) [36]: 0.687
- glycan array binding signal (z-score) [37]: -0.13
- glycan array binding signal (z-score) [38]: -0.798
